In brackets after ≈: the same amount, converted by molar mass. Like-named read-outs stand apart in the source and are kept apart here.
System: Cryptococcus neoformans
Experiment: agar dilution assay (MIC) against expanded panel of 84 Cryptococcus neoformans isolates
Format: cell-based
Settings: 84 isolates
Procedure: Such activity may be illustrated with test results against Cryptococcus neoformans employing yeast nitrogen base dextrose agar medium. In carrying out the assay, Compound I was solubilized in 10 percent dimethyl sulfoxide (DMSO) supplemented with one drop of Tween 20. Twofold dilutions were made with sterile distilled water/10 percent DMSO to obtain final drug concentrations in the agar dilution assay plates ranging from 128 to 0.06 μg/ml against two strains of Cryptococcus neoformans and subsequently against an expanded panel of 84 Cryptococcus strains at concentrations ranging from 0.008 to 16.0 μg/ml.
Nystatin or amphotericin B was used as a positive control. For the assay, nystatin was solubilized in 10 percent dimethylformamide and diluted in sterile distilled water; amphotericin B was solubilized by expressing water directly into a lyophilized cake and shaking until the colloidal solution was clear and then diluted in sterile distilled water. The final drug concentrations ranged from 0.063 to 128 μg/ml.

MIC (read-out: G-MIC (geometric means of MIC)): < 0.16 mg/L | MIC (read-out: Range (MIC)): 0.063 to 0.25 mg/L (≈ 0.0682 to 0.271 µM)
Compound: C[C@@H]1[C@H](O)[C@@H](C)/C=C/C=C/C=C/C=C/C=C/C=C/C=C/[C@H](O[C@@H]2O[C@H](C)[C@@H](O)[C@H](N)[C@@H]2O)C[C@@H]2O[C@](O)(C[C@@H](O)C[C@@H](O)[C@H](O)CC[C@@H](O)C[C@@H](O)CC(=O)O[C@H]1C)C[C@H](O)[C@H]2C(=O)O [Amphotericin B, amphotericin B]

From patent US4946835A (priority 1988, dated 1990)
